Laboratory results reported in patent US20070287718A1 (priority 2003, published 2007).

Legend:
XG1 = experiment: cells; conditions: Homo sapiens, 48 h, read-out: IC50 of proliferation inhibition
XG6 = experiment: cells; conditions: Homo sapiens, XG6, 48 h, read-out: IC50 of proliferation inhibition
MDN = experiment: cells; conditions: Homo sapiens, 48 h, read-out: IC50 of proliferation inhibition

Row | Compound | IC50 (PKC) [µM] | IC50 (XG1) [µM] | IC50 (XG6) [µM] | IC50 (MDN) [µM]
1 | CC[C@H](CO)Nc1nc(NCc2ccccc2)c2ncn(C(C)C)c2n1 (racemic) [roscovitine, 2-[(1-ethyl-2-hydroxyethyl)amino]-6-benzylamine-9-isopropylpurine] | > 50 |  |  | 
2 | CC[C@H](CO)Nc1nc(NCc2ccccc2)c2ncn(C(C)C)c2n1 (single isomer, unassigned) [CYC202, 2-(1-R-hydroxymethylpropylamino)-6-benzylamino-9-isopurine] |  | 15 | 15 | 6
